The full ranking holds about 33,000 sequences; the median of “E-score (-0.5 to 0.5)” is about -0.0034, and the highest 2% start at about 0.25. This is one part of the list.
These sequences were tested against T1, Yap3 (UniProt P38749) (assay: PBM E-score (8-mer binding enrichment) (E-score (-0.5 to 0.5)); higher = stronger / more preferred TF binding). Details: protein concentration: 100 nM; construct: GST-full length.
T1 sequence: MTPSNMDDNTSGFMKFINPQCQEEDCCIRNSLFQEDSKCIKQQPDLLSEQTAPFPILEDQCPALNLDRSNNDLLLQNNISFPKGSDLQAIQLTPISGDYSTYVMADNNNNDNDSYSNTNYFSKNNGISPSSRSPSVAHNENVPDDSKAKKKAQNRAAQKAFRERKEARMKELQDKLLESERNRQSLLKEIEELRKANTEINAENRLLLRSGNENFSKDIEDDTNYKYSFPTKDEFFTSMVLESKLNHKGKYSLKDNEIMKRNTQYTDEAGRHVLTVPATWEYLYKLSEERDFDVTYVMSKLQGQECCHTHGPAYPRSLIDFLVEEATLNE
In short: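 Yeast transcription factors, full-length or as DNA-binding domains, were expressed with a GST tag using PURExpress in vitro transcription/translation. At about 100-200 nM they were applied to universal all-10-mer Agilent arrays, double-stranded by primer extension on fresh or once-stripped slides. Fluorescent anti-GST detected bound protein, and masliner normalised the scans. E-scores for ungapped eight-base words, pooled with reverse complements, came from the Universal PBM Analysis Suite.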

Sequence	PBM E-score
CGCTGCTC	-0.133
CCTTAATC	-0.0898
CGGATATA	0.189
CTTTGGAA	-0.0122
CTACAATC	0.193
ATCGCGTG	0.132
CAATACAG	0.0498
CCGACAGG	-0.0616
GGCCAGTA	-0.0503
AGATCCCG	0.0457
AAGGTTAG	0.101
CGATCAGC	-0.0555
AGGCTACA	-0.0383
ACTCTCAA	-0.108
CAGGGCCC	-0.218
CGTATTTA	0.313
ACTTAAAG	-0.1
ACCACCCC	-0.0856
AATGTTAT	0.222
CCTTACCA	0.00813
CCAGCACC	-0.26
CACCTCTA	0.158
CTGTTAAC	0.216
CGTAGCCC	-0.117
ATTTAACG	0.204

Sequence	PBM E-score
GAAACCGC	0.00609
AATGTTGG	0.0757
AAGGGCCT	-0.251
GCACTACA	-0.112
ATCGATTA	0.218
CCAATGCC	-0.162
ACGTATCT	-0.0974
TCGGAACA	0.185
GGGGCTGA	-0.167
ACTCCTAG	-0.232
ATGACACC	-0.0117
AGAGTCGC	0.019
GAGCGTCC	-0.223
AATGGACG	0.167
ACTAACGC	0.0336
AACAAGAC	0.0841
AGCTCCGC	-0.109
GACTGATA	-0.0592
CGGTACAC	-0.123
AACGGCGA	0.252
GGGCATCA	-0.242
CTGATGTC	0.0994
ACTGAACC	-0.125
CACTGGGA	-0.0348
TAGTTCCA	0.14

Rewritten as a markdown table: entries from further up

| Sequence | PBM E-score |
| --- | --- |
| CGTATTTA | 0.313 |
| ACTTAAAG | -0.1 |
| ACCACCCC | -0.0856 |
| AATGTTAT | 0.222 |
| CCTTACCA | 0.00813 |
| CCAGCACC | -0.26 |
| CACCTCTA | 0.158 |
| CTGTTAAC | 0.216 |
| CGTAGCCC | -0.117 |
| ATTTAACG | 0.204 |
| GAAACCGC | 0.00609 |
| AATGTTGG | 0.0757 |
| AAGGGCCT | -0.251 |
| GCACTACA | -0.112 |
| ATCGATTA | 0.218 |
| CCAATGCC | -0.162 |
| ACGTATCT | -0.0974 |
| TCGGAACA | 0.185 |
| GGGGCTGA | -0.167 |
| ACTCCTAG | -0.232 |
| ATGACACC | -0.0117 |
| AGAGTCGC | 0.019 |
| GAGCGTCC | -0.223 |
| AATGGACG | 0.167 |
| ACTAACGC | 0.0336 |
| AACAAGAC | 0.0841 |
| AGCTCCGC | -0.109 |
| GACTGATA | -0.0592 |
| CGGTACAC | -0.123 |
| AACGGCGA | 0.252 |
| GGGCATCA | -0.242 |
| CTGATGTC | 0.0994 |
| ACTGAACC | -0.125 |

More results.

Sequence	PBM E-score
AATATCTG	0.084
ATTCTTCA	0.0724
AGGGGGGA	-0.261
AATGGTGC	-0.146
GAATCCCA	0.107
TCGTTCAA	0.0575
CTATTAAA	0.135
AATTAGTG	0.269
CCTGGCAC	-0.155
ATTGCTGC	0.0525
CAACCCTC	-0.0647
CCCGGCTA	-0.2
GGTTAACA	0.1
AGTATAAC	-0.0565
CGGAGTCA	-0.0856
CAGGGCCG	-0.22
ATTGTCCA	0.0865
AGGTTTAG	0.0249
AACAATTC	0.106
CGCGCGGC	0.167
CAAAAAGC	0.129
ATCTTAAC	0.125
TATCCCGA	0.149
CAGGTCTC	-0.112
CTAGAAGC	-0.191

Sequence	PBM E-score
CCAGTAGA	0.107
GGATCTTA	0.0326
ATCATAAC	0.144
AGCATTCG	-0.106
AGAAGCTG	-0.112
ACCTTAGA	-0.006
AGTAGAAC	-0.163
ACAGATTA	-0.0494
AGGATGCC	-0.186
GCAGCATA	-0.0295
CCCCTACA	-0.226
ACGCAAAA	0.189
AGTTTCAT	0.173
TACAGACA	0.0564
TGACGACA	0.0856
CCCGCGCA	-0.0859
GGTTTTAC	-0.221
CCTTCCGA	-0.16
CCACCGCA	-0.102
TACATTCA	0.161
CATAACCG	0.00583
CCCCGGCC	-0.35
ATCTTGTG	0.0325
AAGGAAGT	0.0285
AACAAAGC	0.134

Sequence	PBM E-score
ATCCTCAG	0.166
CGCCTCGA	-0.00388
GCAAGCAA	-0.0437
AATTGGAG	-0.0503
CCGCCGCC	-0.171
GAGCACAA	0.066
ACTCGTCC	-0.148
CAAATTTA	0.203
CATGCGAC	0.0586
ATGCTTAC	0.00368
AACGGTAG	-0.0242
GCACTGGC	-0.0323
CACCAGAC	-0.0524
GAAAAGCA	0.0951
CTTCGAAG	0.0178
GATCGTGC	-0.00651
TATTCAAA	0.138
AGTGTGGA	0.0487
ATTCGACG	0.166
ATACCCAC	-0.0482
ACATTCCC	0.00295
GACGAAAC	0.00983
ACTTGGAG	-0.0381
AGTCGACT	0.277
ACAGATGT	-0.0809

Sequence	PBM E-score
GCGCGCGA	0.121
GGTGCGCA	0.0309
ACTATGGC	0.0572
AGGTTTGC	-0.0512
CCTCTATC	-0.0735
ACGCGAGG	0.0928
AAGCGGTA	0.0894
AGGACCGA	-0.0553
CAGCGTGA	-0.0264
AGGATTTA	0.153
ATGTTTAG	0.141
TCTCCCAA	-0.0993
CTCATCAG	0.145
GCTTCACC	-0.15
AAGATAAA	0.286
AGTGTCAT	0.153
ATATTGTG	0.147
ATTAACAG	0.0676
AGAGGCAC	-0.224
CAGTTCAC	-0.0312
GTGCGCGA	0.00408
CACACAAA	0.103
CAGTATCA	0.0462
ATGCCACG	-0.15
GTATGGCA	-0.023

Sequence	PBM E-score
GTCAGCTA	-0.0756
CACTTGTA	0.0741
ACCACGGA	-0.236
GCAGTGCA	0.00906
TAACTGAA	0.0253
CTGAGCTA	-0.155
TTAGAAAA	0.0486
ACTTTTCG	0.0705
ACGGCTGG	-0.224
CGCTGATA	-0.108
ACAGGCGG	-0.0762
AGGTACGG	-0.166
ATGACATG	0.0548
CAGAGTAG	0.101
GTCAAAAA	0.055
CTTCGAGA	-0.164
CCTAGTCA	0.0001
AAAGTGAC	-0.0256
ACGACAAG	0.0627
GACAGTCC	-0.198
ACTGGCCT	-0.135
TAAATATA	0.297
